No constants are given. Whether binding was seen depends on the method and setting. Binding seen in cells or lysates may run through a third protein. Some results given as binding are weak or reduced against the parent protein; the word gives no strength. Sequences can lack the tags named with a protein.

The chains behind the UniProt entries cited, without tags or fusion partners.
UniProt P42227: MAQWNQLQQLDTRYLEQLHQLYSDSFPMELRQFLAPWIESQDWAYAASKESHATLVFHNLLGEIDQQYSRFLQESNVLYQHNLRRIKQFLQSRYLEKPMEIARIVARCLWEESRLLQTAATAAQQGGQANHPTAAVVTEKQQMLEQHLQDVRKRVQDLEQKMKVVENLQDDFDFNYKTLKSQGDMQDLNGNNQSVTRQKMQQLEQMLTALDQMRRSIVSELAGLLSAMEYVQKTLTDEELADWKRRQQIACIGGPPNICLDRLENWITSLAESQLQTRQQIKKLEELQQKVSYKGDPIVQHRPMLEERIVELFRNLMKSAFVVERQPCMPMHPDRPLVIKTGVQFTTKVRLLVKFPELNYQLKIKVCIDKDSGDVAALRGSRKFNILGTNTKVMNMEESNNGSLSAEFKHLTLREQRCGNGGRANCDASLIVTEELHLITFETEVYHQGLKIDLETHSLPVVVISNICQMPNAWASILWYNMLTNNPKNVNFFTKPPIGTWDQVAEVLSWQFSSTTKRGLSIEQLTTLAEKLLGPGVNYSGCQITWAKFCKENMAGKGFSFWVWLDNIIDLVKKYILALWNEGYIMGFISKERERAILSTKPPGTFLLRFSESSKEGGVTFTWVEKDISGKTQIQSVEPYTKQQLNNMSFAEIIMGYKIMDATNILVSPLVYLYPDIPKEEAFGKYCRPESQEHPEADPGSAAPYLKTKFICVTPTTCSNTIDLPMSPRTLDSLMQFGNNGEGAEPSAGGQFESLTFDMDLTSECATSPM

For the test, the target named is STAT3 (mouse (endogenous in CMT93)) (UniProt P42227). Description: co-IP; CMT93 cell supernatants immunoprecipitated with 2 ug anti-JMJD2D, anti-STAT3 or control IgG, rotation overnight at 4°C, then western blot; cells without or with heat-killed C. rodentium treatment.

B1: Histone demethylase JMJD2D (protein, UniProt Q3U2K5 1-510)
chain: MKTKSTCAQNPNCSIMIFRPTKEEFNDFDKYIAYMESQGAHRAGLAKVIPPKEWRARQSYDNISNILIATPLQQVVSGQAGVFTQYHKKKKGMTVGEYRELANSKKYQTPPHLDFEDLERKYWKNRLYESPIYGADVSGSLFDGKTQQWNVGHLGTIQDLLEQECGIVIEGVNTPYLYFGMWKTTFAWHTEDMDLYSINYLHFGQPKTWYAVPPEHGRRLERLARELFPGSSQGCQAFLRHKVALISPTVLKENGIPFGRITQEAGEFMVTFPYGYHAGFNHGFNCAEAINFATPRWIDYGKVASQCSCGEARVSFSMDAFVRILQPERYELWKRGQDQAVVDHTETMVSTSQELTTRRVTKAPRKTWGLKRLRLRQVSRSLLPIATVSNVPCNMQVCHTSRQPSDVKGDDVQKSDSARASPHPLSLPSSGHMSTRRCSLGRRPCELGAQESSNGAPVKRQLPAGRDDTSPSPELQPQAVSGDLIVDSGLVNPGPQHLMTASEGGLTSDP
As to B1, the binding entry is “binds”.

These data come from publication PMC11221690.
